B1: h2F8 (antibody, V domains shown)
VH: EVQLVESGGGLVKPGGSLRLSCAASGFIFSDYNMNWVRQAPGKGLEWVSSITRSSRTIYYADSVKGRFTISRDNAKNSLHLQMNSLRDADTAVYYCAREDFDVSTGPYYMDVWGNGTTVIVSS
VL: EIVLTQSPGTLSLSPGERATLSCRASQSVSNMFLVWYQQKPGQAPRLLMYGASTRATDIPDRFSGSGSGTDFTLTISRLEPEDFAVYYCQQNGNSPYTFGQGTKLEIK
B2: h7G6 (antibody, V domains shown)
VH: QVQLVESGGGVVQPGRSLRLSCAASGIAFNDYTMHWVRRSPDKGLEWVAAISYGGTNKYYADSVKGRFTISRDSSKNTLFLQMDSLRVEDTAVYYCARDSGYRSLLHWGQGTLVTVSS
VL: EIVLTQSPLSLPVTPGEPASISCRSSQSLVHRNGYNYLDWYLQKPGQSPQLLIYMASKRASGVPDRFSGSGSGTEFTLKISRVEAEDVGIYYCMQALQTWTFGQGTKVEVN
B3: h4B2 (antibody, V domains shown)
VH: QVQLQEAGPRLVKPSQTLSVTCTVSGASITIGGYYWSWIRQHPGKGLEWMGYIYSNGRTYYNPSLKSRIAMSIDTSKNQFSLKLTSVTAADTAIYFCAREAWETPLWGQGTLITVSS
VL: DIQMTQSPSSLSASVGDRVTITCQANQDIVNSLNWFQHKPGTAPKVLIYDASKLETGVPSRFSGSGSGTHFTFTISGLQPEDFATYFCQQYENLPHTFGQGTKLEIR
B4: h37D5 (antibody, V domains shown)
VH: EEQLVESGGRLLRPGESLSLSCAAVGFNFGDFGMAWVRQPPGKGLEWVAGINWSGHSTGFVDSMKGRLTISRDSAKSSLFLQMNSLRGEDTAVYYCARVGRLCSGDICDSMGAFDLWGQGTMVTVSS
VL: DIQMTQSPSTLSASIGDRVTITCRASQTIDNWLAWYQQRPGKAPKLLIYQASSLQSGVSSRFRGSGSGTEFTLTITSLQPDDFATYYCQKSNGYSRTFGQGTKVEIK
B5: h12G10 (antibody, human IgG1, V domains shown)
VH: EVQLLESGGRLLRPGGSLSLSCVASGFYFGDFGMSWVRQVPGKGLEWVSGIDWSGRSTGYVDSMKGRLTISRDNDKSSLYLQMNDLRGEDTAVYYCARVGRLCSGDSCDSMGAFDLWGQGTMVTVSS
VL: B4 VL with M4L, R18S, T28N, R39K, K45R, Q50K, Q55G, R61K, S67F, E105D
B6: h32B10 (antibody, V domains shown)
VH: QVQLVQSGAEVKKPGASVKVSCRASGYIFRNFDINWVRQATGQGLEWMGWMSPKSGDTGYAQKFQGRVTMTRDTSINTAYMELSSLTSEDSAVYYCARGVDGTNWGQGTRVTVSS
VL: DIVMTQSPDSLGVSLGERATISCKSSQSILDNSNNKNFIAWFQQKPGQPPKLLIYWASARESGVPDRFSGSGSGTEFTLTINSLQAEDVAVYYCYQYYSTPHTFGQGTKLDLR

Drawing on patent US20200199207A1, this text covers binding for six molecules.

Residue numbers refer to the chain shown, from its start. These are yes or no findings as the source states them, for the method shown. For part of these data: Binding can be weak; no strength is given.

For one test, the target named is nAra h 3 (peanut). Kind of test: ELISA, antigen-coated plate (FIG. 3).
Consider B1, for which the binding result is on record as “binds”.
B2: the binding entry is “binds”.
For B3, the binding result is given as “binds”.
As to B4, the binding entry was “binds”.
As to B5, the binding result is reported as “binds”.
Turning to B6, the binding result is listed as “binds”.

A further test deals with nCor a 9. Kind of test: ELISA, antigen-coated plate.
For B1, the binding result is “no binding (tested: 1000 ng/ml)”.
The same measure, in the same setting: the value for B2 was “no binding (tested: 1000 ng/ml)”.
B3: the binding result was “no binding (tested: 1000 ng/ml)”.
On to B4, for which the binding entry is on record as “no binding (tested: 1000 ng/ml)”.
On the same count and under the same terms, in the case of B5 it was “no binding (tested: 1000 ng/ml)”; in that of B6, “no binding (tested: 1000 ng/ml)”.

For the next test, the target named is rAna3o. Kind of test: ELISA, antigen-coated plate.
As for B1, the binding entry is reported as “no binding (tested: 1000 ng/ml)”.
As for B2, the binding result is on record as “no binding (tested: 1000 ng/ml)”.
As to B3, the binding entry is “no binding (tested: 1000 ng/ml)”.
B4: the binding entry is “no binding (tested: 1000 ng/ml)”.
As to B5, the binding result is given as “no binding (tested: 1000 ng/ml)”.
B6: the binding entry is “no binding (tested: 1000 ng/ml)”.

A further test addresses rAra h 8 (peanut). Kind of test: ELISA, antigen-coated plate.
Regarding B1, the binding entry was “no binding (tested: 1000 ng/ml)”.
The same measure, in the same setting: the value for B2 was “no binding (tested: 1000 ng/ml)”; that for B3 was “no binding (tested: 1000 ng/ml)”; that for B4 was “no binding (tested: 1000 ng/ml)”.
The same measure, in the same setting: the value for B5 was “no binding (tested: 1000 ng/ml)”; that for B6 was “no binding (tested: 1000 ng/ml)”.

Another test addresses rAra h 9 (peanut). Kind of test: ELISA, antigen-coated plate.
Turning to B1, the binding result is reported as “no binding (tested: 1000 ng/ml)”.
On to B2, for which the binding entry is recorded as “no binding (tested: 1000 ng/ml)”.
Consider B3, for which the binding result is “no binding (tested: 1000 ng/ml)”.
As to B4, the binding result is “no binding (tested: 1000 ng/ml)”.
For B5, the binding entry is “no binding (tested: 1000 ng/ml)”.
Turning to B6, the binding result was “no binding (tested: 1000 ng/ml)”.
